Source: PMC8164026, “Intrapulmonary administration of purified NEIL2 abrogates NF-κB–mediated inflammation”

Target: T1, Recombinant FLAG-tagged NEIL2 (NEIL2-FLAG) from h358 cells (UniProt Q969S2)
T1 sequence: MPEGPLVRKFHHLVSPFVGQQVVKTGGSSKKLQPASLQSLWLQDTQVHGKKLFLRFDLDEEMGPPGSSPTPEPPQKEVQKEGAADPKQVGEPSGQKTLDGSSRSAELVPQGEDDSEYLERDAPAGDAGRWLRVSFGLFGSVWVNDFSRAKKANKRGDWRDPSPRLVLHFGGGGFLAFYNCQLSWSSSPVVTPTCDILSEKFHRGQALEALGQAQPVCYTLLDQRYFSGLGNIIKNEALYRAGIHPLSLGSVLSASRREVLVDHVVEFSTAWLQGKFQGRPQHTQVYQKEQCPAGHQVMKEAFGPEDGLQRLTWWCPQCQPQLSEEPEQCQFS
Assay: co-IP; anti-FLAG beads preincubated 1 h at 4 °C with whole cell lysates of h358 cells expressing control or NEIL2-FLAG vector, washed, then incubated 1 h at 4 °C with 1 μg rHis-RelA or GST-tagged RelA domains in 300 μl IP buffer (25 mM Tris-HCl pH 7.5, 150 mM NaCl, 1% Triton X-100, 5% glycerol, 1 mM DTT); immunoblot with anti-RelA, FLAG or GST; both purified

binding: binds
Substance: GST-tagged Rel homology region of RelA (GST-RHR) (domain or fragment)

These are yes or no findings as the source states them, for the method shown. In cells and extracts the contact can be indirect. Binding can be weak; no strength is given. Tags and fused reporters may be left off the sequences shown.
